# Reference: paper PMC10013470
# Results are given in words; binding and its absence hold for the method and conditions named. Binding seen in cells or lysates may run through a third protein. Some binding calls cover weakened binding; strength is not graded here.
# T1: Gasdermin D (GSDMD) (human (endogenous in BXPC-3 and Patu-8988t)) (UniProt P57764)
# T1 sequence: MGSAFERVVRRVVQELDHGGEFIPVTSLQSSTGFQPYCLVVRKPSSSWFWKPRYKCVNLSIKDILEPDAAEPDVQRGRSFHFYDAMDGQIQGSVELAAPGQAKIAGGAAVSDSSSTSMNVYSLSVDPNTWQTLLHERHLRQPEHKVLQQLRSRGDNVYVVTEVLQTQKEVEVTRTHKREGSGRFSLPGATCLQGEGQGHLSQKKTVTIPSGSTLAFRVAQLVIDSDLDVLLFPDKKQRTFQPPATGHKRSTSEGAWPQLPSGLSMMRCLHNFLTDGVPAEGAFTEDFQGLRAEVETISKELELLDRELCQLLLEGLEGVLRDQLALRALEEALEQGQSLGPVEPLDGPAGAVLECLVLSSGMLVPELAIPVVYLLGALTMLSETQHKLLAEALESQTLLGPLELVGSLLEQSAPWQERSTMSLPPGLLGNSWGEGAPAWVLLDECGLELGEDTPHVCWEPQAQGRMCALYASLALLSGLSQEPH
# T2: Gasdermin E (GSDME) (human (endogenous in BXPC-3 and Patu-8988t)) (UniProt O60443)
# T2 sequence: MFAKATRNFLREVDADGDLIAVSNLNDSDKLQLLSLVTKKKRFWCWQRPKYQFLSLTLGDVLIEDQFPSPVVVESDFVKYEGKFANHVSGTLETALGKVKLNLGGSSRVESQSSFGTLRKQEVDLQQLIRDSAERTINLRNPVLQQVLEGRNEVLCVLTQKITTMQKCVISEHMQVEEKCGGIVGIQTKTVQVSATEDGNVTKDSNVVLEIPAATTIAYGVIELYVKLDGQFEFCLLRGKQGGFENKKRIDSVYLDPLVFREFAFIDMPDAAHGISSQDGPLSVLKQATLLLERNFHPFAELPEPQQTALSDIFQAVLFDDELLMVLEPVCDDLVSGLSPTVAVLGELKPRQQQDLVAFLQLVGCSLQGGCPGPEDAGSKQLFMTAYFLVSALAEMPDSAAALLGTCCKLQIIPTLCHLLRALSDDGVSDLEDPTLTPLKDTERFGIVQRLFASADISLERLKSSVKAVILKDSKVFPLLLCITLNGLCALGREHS
# Assays:
# [1] = molecular target: T1, Gasdermin D (GSDMD) (human (endogenous in BXPC-3 and Patu-8988t)); test: co-IP; endogenous proteins in RIPA lysates of BXPC-3 and Patu-8988t cells; primary antibody at 4°C overnight, Protein A+G agarose beads, rabbit or mouse IgG as negative control; western blot
# [2] = molecular target: T2, Gasdermin E (GSDME) (human (endogenous in BXPC-3 and Patu-8988t)); test: as above
binder,measurement,setting,value
"Polypeptide N-acetylgalactosaminyltransferase-6 (GALNT6) (enzyme, UniProt Q8NCL4 1-622) MRLLRRRHMPLRLAMVGCAFVLFLFLLHRDVSSREEATEKPWLKSLVSRKDHVLDLMLEAMNNLRDSMPKLQIRAPEAQQTLFSINQSCLPGFYTPAELKPFWERPPQDPNAPGADGKAFQKSKWTPLETQEKEEGYKKHCFNAFASDRISLQRSLGPDTRPPECVDQKFRRCPPLATTSVIIVFHNEAWSTLLRTVYSVLHTTPAILLKEIILVDDASTEEHLKEKLEQYVKQLQVVRVVRQEERKGLITARLLGASVAQAEVLTFLDAHCECFHGWLEPLLARIAEDKTVVVSPDIVTIDLNTFEFAKPVQRGRVHSRGNFDWSLTFGWETLPPHEKQRRKDETYPIKSPTFAGGLFSISKSYFEHIGTYDNQMEIWGGENVEMSFRVWQCGGQLEIIPCSVVGHVFRTKSPHTFPKGTSVIARNQVRLAEVWMDSYKKIFYRRNLQAAKMAQEKSFGDISERLQLREQLHCHNFSWYLHNVYPEMFVPDLTPTFYGAIKNLGTNQCLDVGENNRGGKPLIMYSCHGLGGNQYFEYTTQRDLRHNIAKQLCLHVSKGALGLGSCHFTGKNSQVPKDEEWELAQDQLIRNSGSGTCLTSQDKKPAMAPCNPSDPHQLWLFV",binding,[1],no binding
same,binding,[2],binds
